{"sequences": {"note": "Protein sequences, listed by entry. Tags and fused reporters are not part of them. Lines headed by an entry give the natural chain unless they say otherwise; changes in a name come on top.", "UniProt Q9UNA4": "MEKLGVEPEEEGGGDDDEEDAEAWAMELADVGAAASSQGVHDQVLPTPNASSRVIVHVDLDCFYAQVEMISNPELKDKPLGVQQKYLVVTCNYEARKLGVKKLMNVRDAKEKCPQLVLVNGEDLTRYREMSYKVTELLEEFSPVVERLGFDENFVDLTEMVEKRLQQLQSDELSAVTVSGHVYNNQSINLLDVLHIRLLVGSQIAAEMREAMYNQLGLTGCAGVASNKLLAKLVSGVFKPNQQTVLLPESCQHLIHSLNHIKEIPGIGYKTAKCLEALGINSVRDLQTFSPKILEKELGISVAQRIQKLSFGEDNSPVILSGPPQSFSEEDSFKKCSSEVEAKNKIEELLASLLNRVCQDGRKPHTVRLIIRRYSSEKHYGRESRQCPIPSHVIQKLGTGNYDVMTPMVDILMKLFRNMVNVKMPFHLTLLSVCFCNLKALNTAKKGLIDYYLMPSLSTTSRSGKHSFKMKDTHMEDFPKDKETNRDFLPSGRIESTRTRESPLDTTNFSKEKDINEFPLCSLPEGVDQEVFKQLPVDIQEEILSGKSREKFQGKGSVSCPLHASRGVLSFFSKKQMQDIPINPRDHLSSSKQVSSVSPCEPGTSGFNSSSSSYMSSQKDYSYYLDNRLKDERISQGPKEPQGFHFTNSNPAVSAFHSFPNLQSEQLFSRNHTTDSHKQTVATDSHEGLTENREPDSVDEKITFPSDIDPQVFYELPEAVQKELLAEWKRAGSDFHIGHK"}, "source": "PubChem BioAssay AID588590", "about": "(National Center for Advancing Translational Sciences (NCATS), 2011)", "note": "About 4,000 (1%) of roughly 390,000 compounds were called active. The shares of active, inactive and inconclusive entries below differ from those in the screen. Calls follow the shape of the dose curve; as a rule, active = well fitted inhibition curve with a large enough effect; inconclusive = small, poorly fitted or top-dose-only effect, or another doubt; inactive = no such curve, though single readings can be large or run the other way. Potencies beside an inconclusive call are fits to weak or partial responses and may not hold up."}
{"molecular_target": "DNA polymerase iota (Homo sapiens) (UniProt Q9UNA4)", "experiment": "qHTS for Inhibitors of Polymerase Iota; also: potency is read from the fitted curve at half-maximal effect", "settings": "Pol iota fluorescent replication assay, 10 min; series mostly up to 115 µM", "method_in_brief": "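Pol iota at 10 nM preincubated 15 min with compounds at room temperature; reaction started with fluorescent substrate, 50 nM final. Fluorescence read kinetically at 0 and 10 min; buffer-only wells as negative control.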"}
{"compound": "CCOc1ccc(NC(=O)c2c(NC(=O)c3ccccc3Br)sc3c2CCC(C)C3)cc1", "note": "(stereo unspecified)", "Potency": "inconclusive: 7.94 µM [inhibitor, partial curve, poor fit]"}
{"compound": "O=C(Nc1ccc(Cl)cc1)C(Cl)C(=O)c1ccccc1", "note": "(stereo unspecified)", "Potency": "inconclusive: 20 µM [inhibitor, partial curve]"}
{"compound": "Cc1cc(-c2nc3ncccc3o2)ccc1NC(=O)c1ccc(Cl)cc1", "Potency": "inactive"}
{"compound": "O=C(COC(=O)c1ccc([N+](=O)[O-])o1)Nc1ccc2c(c1)OCO2", "Potency": "inactive"}
{"compound": "COc1ccc(S(=O)(=O)N2CCCCCC2)cc1C(=O)NCCc1ccccc1", "Potency": "inconclusive: 56.2 µM [inhibitor, partial curve, poor fit]"}
{"compound": "O=C(NC1CCCCC1)C1CCN(S(=O)(=O)c2cccc3cccnc23)CC1", "Potency": "inactive"}
{"compound": "COc1cccc(Nc2nnc(SCC(=O)Nc3sccc3C(N)=O)s2)c1", "Potency": "inconclusive: 14.1 µM [inhibitor, partial curve]"}
{"compound": "Cc1cc(C2(c3ccc(O)c(C)c3)OC(=O)c3ccccc32)ccc1O", "Potency": "inconclusive: 56.2 µM [inhibitor, partial curve, poor fit]"}
{"compound": "O=C(Cc1ccccc1)Nc1ccc2oc(-c3ccncc3)nc2c1", "Potency": "inconclusive: 39.8 µM [inhibitor, partial curve, poor fit]"}
{"compound": "Fc1cccc(CN(C2=NCCN2)c2c(Cl)cccc2Cl)c1", "Potency": "inconclusive: 50.1 µM [inhibitor, partial curve, poor fit]"}
{"compound": "CC1C/C(=C\\c2cccnc2)C(=O)/C(=C/c2cccnc2)C1", "note": "(stereo unspecified)", "Potency": "active: 15.8 µM"}
{"compound": "COc1ccc(/C=C/C(=O)NCCSCc2ccco2)cc1OC", "Potency": "active: 70.8 µM"}
{"compound": "Cc1ccc(NC(=O)CNC(=O)CC23CC4CC(CC(C4)C2)C3)c(O)c1", "Potency": "inactive"}
{"compound": "CCOC(=O)C1(Cc2ccc(OC)cc2)CCN(C(=O)c2cccc3nccnc23)CC1", "Potency": "inconclusive: 0.631 µM [inhibitor, full curve, poor fit]"}
{"compound": "O=C(/C=C/c1cccnc1)c1cccc(O)c1", "Potency": "inconclusive: 3.16 µM [inhibitor, partial curve, poor fit]"}
{"compound": "Cc1ccc2c(c1)C(=O)C(=O)N2CC(=O)Nc1ccccc1NC(=O)c1ccccn1", "Potency": "inconclusive: 25.1 µM [inhibitor, partial curve, poor fit]"}
{"compound": "Oc1ccc2ccccc2c1C=Nc1cc(C(F)(F)F)ccc1N1CCCC1", "Potency": "inconclusive: 39.8 µM [inhibitor, partial curve, poor fit]"}
{"compound": "CC1(C)Cc2c(C#N)c(N)n(-c3ccccc3)c(=S)c2CO1", "Potency": "inactive"}
{"compound": "COc1cc([N+](=O)[O-])ccc1NC(=O)CCCOc1cccc(C)c1", "Potency": "inconclusive: 31.6 µM [inhibitor, single point]"}
{"compound": "Cc1ccc(S(=O)(=O)n2nc(OC(=O)c3c(-c4ccccc4Cl)noc3C)cc2N)cc1", "Potency": "inconclusive: 7.08 µM [inhibitor, single point]"}
{"compound": "Cn1c(=O)c2c(nc(SCc3cccnc3)n2Cc2ccccc2)n(C)c1=O", "Potency": "inconclusive: 28.2 µM [inhibitor, full curve, poor fit]"}
{"compound": "CC(C)c1ccc(NC(=O)C2CCCN(S(=O)(=O)c3ccc4[nH]c(=O)ccc4c3)C2)cc1", "note": "(stereo unspecified)", "Potency": "inactive"}
{"compound": "Cc1[nH]n(-c2ccccc2)c(=O)c1C(c1ccc(O)c([N+](=O)[O-])c1)c1c(C)[nH]n(-c2ccccc2)c1=O", "Potency": "inconclusive: 0.794 µM [inhibitor, full curve, poor fit]"}
{"compound": "CN(C)CCCN1c2ccccc2Sc2ccccc21", "Potency": "inconclusive: 100 µM [inhibitor, single point]"}
{"compound": "O=C(NC(=S)Nc1ccc(N2CCOCC2)cc1)c1cccs1", "Potency": "inconclusive: 22.4 µM [inhibitor, partial curve, poor fit]"}
{"compound": "NC1=NC(=O)/C(=C/c2ccccc2OCC(=O)Nc2ccc(F)cc2)S1", "Potency": "inconclusive: 22.4 µM [inhibitor, full curve, poor fit]"}
{"compound": "COc1ccc(NC(=O)c2c[nH]n3c(=O)cc(C4CCN(C(=O)OC(C)(C)C)CC4)nc23)cc1Cl", "Potency": "inactive"}
{"compound": "Cn1c(SCC(=O)c2ccccc2)nnc1-c1ccncc1", "Potency": "inactive"}
{"compound": "O=C(CCN1C(=O)c2cccc3cccc(c23)C1=O)NCc1ccco1", "Potency": "inconclusive: 50.1 µM [inhibitor, partial curve, poor fit]"}
{"compound": "CCN(c1ccc(C)cc1C)S(=O)(=O)c1nnc(NC(=O)c2ccccc2OC)s1", "Potency": "inactive"}
{"compound": "CCOc1ccc(-n2c(Cc3cc(=O)[nH]c(=O)[nH]3)nnc2SCC(=O)NC2CCCC2)cc1", "Potency": "inconclusive: 79.4 µM [inhibitor, single point]"}
{"compound": "CCCCn1cc(S(=O)(=O)c2ccc(Cl)cc2)c(=O)c2cc(F)c(N3CCCCC3)cc21", "Potency": "inactive"}
{"compound": "COc1cccc(-n2nnnc2SCC(=O)Nc2ccc3c(c2)OCCO3)c1", "Potency": "inconclusive: 100 µM [inhibitor, single point]"}
{"compound": "Cc1ccc(-c2cc(=O)c3cc(C)ccc3[nH]2)cc1", "Potency": "inconclusive: 17.8 µM [inhibitor, partial curve, poor fit]"}
{"compound": "CN(C)CCCN1c2ccc([N+](=O)[O-])cc2CCc2cc([N+](=O)[O-])ccc21", "Potency": "inconclusive: 3.16 µM [inhibitor, partial curve, poor fit]"}
{"compound": "COc1ccc(N2C(=O)[C@@H]3[C@H](C2=O)[C@H]2c4ccccc4C=CN2[C@@H]3C(C)=O)cc1", "Potency": "inconclusive: 89.1 µM [inhibitor, partial curve, poor fit]"}
{"compound": "O=C(CCNC(=O)Cn1cnc2ccccc2c1=O)NCCC1=CCCCC1", "Potency": "inconclusive: 35.5 µM [inhibitor, single point]"}
{"compound": "COc1cc2c(-c3ccccc3Cl)nc3c(c(C)nn3-c3ccccc3)c2cc1OC", "Potency": "inactive"}
{"compound": "COc1cc(/C=N/Nc2ccc([N+](=O)[O-])cn2)cc(OC)c1O", "Potency": "inconclusive: 79.4 µM [inhibitor, partial curve]"}
{"compound": "CC1C=CC(C)C(C(=O)O)C1C(=O)O", "note": "(stereo unspecified)", "Potency": "inconclusive: 17.8 µM [inhibitor, full curve, poor fit]"}
{"compound": "CCOc1ccc(-c2nc(S(=O)(=O)c3ccccc3)c(NC)o2)cc1", "Potency": "inactive"}
